Here are results for 3 substances from patent publication US7301006 (dated 2007).

A short description of the data set: general procedure: peptide synthesis; 2-chlorotrityl resin, pre-loaded (0.5 mmol/g); PyBOP/collidine (manual syntheses). Particulars: whole synthesis; for isolated yield: based on resin loading.
Where [1] appears, read: scale of the general procedure 0.025 mmol.

As for AcYEYSLDYDF, the crude mass came to 17 mg and the isolated mass was determined as 4.6 mg. Also, the isolated yield (overall, scale of the general procedure 0.025 mmol) is on record as 5.2%. Besides, the difficulty met result under setting [1] is “proceeded somewhat less efficiently, yielding several apparent deletion peptides”.
AcYSEYSLDYSDF: the isolated yield (minus resin for characterization, scale 0.025 mmol) is listed as 27%. For the setting “scale 0.025 mmol”, this substance showed a crude mass of 28 mg and an isolated mass of 8 mg.
In the case of FmocYSEYSLDYSDF, under setting [1], the outcome is given as “generated in the attempted synthesis of FmocYSEYSLDYSDF (SEQ ID NO 2) via the stepwise protocol”.
